Results: US6913917B2, “Anti-cocaine catalytic antibody” (priority 1996, dated 2005)

Assay: Plasma concentrations at death by HPLC
Type: in vivo, rat
Details: antibody 100 mg/kg

B1: Mab 15A10: mouse monoclonal anti-cocaine catalytic antibody elicited by TSA 1; most active (antibody, V domains shown)
VH: SGPELVKPGASVKVSCKASGYSFTDYNMYWVKQNHGESLEWIAYIDPSNGDTFYNQKFQGKATVTLDKSSSTAFMHLNSLTSEDSAVYYCARGGGLFAFWGQGTLVTVSA
VL: AVVTQESALTTSPGETVTLTCRSSTGTITSDNYANWVQEKPDHLFSGLIGVNNYRPPGVPARFSGSLTGDKAVLTITGAQTEDEAIYFCALWYSNHWVFGGGTKLTVLG
modifications: mouse
Result in words
  plasma cocaine concentration at death versus control groups: not significantly different
At death
  plasma benzoic acid concentration: 3.85 ± 0.89 µM
  plasma concentration of benzoyl ecgonine: 7.68 ± 1.07 mM
